The record followed here is PubChem BioAssay AID330 (DTP/NCI, 2004).

The list does not hold the whole screen: it gathers tests that were run many times, whatever their T/C, doses with no T/C, and many T/C values between a quarter and a half above the control. Other doses and runs of a compound stand elsewhere. T/C is the treated group as % of the vehicle group. Some doses have a count of surviving animals in place of a T/C: the source holds a T/C of zero for them, seemingly a mark for toxic or unscored doses. Some survivor counts are full or nearly so, which does not show that the dose was tolerated: survival well below the control is almost never listed, so the zero probably covers shortened survival too. Survivors were counted at the toxicity check, usually on the fifth day, unless a day is given; later deaths do not show. Schedule codes are those of the source, read here as Q, the interval in days (D) or hours (H), X, the number of doses. Some entries were tested several times; the values are given in rising order. For survival time, this PubChem deposit counts one and a half times the control or more as active, and values a quarter to a half above the control carry no call in these data; other NCI protocols may use other cut-offs. Some T/C values are followed by the survivors on the day toxicity was checked, most often the fifth; where none is given, no animal had died by that day.

This test deals with P388 leukemia ip, CD2F1 mice, survival T/C. Description: NCI In Vivo Anticancer Drug Screen. Data for tumor model P388 Leukemia (intraperitoneal) in CD2F1 (CDF1) mice. As to conditions: T/C endpoint: median survival time, higher T/C = longer survival.
The mark [1] stands for this setting: dose: 60.0 mg/kg/injection, schedule: Q01DX005 (ip), vehicle: saline.
Setting [2] is: dose: 120.0 mg/kg/injection, schedule: Q01DX005 (ip), vehicle: saline.
The mark [3] stands for this setting: dose: 240.0 mg/kg/injection, schedule: Q01DX005 (ip), vehicle: saline.
Where [4] appears, read: dose: 200.0 mg/kg/injection, schedule: Q01DX005 (ip), vehicle: saline with Tween-80.
[5] abbreviates: dose: 100.0 mg/kg/injection, schedule: Q01DX009 (ip), vehicle: Klucel (hydroxypropylcellulose) (HPC).
[6] abbreviates: dose: 200.0 mg/kg/injection, schedule: Q01DX009 (ip), vehicle: Klucel (hydroxypropylcellulose) (HPC).

Consider `OCCNCO`, for which the T/C reads like this: under setting [1], 125 and 136 % of control [5 of 6 alive]; under setting [2], 137 and 137 % of control [5 of 6 alive]; under setting [3], 128 [5 of 6 alive] and 140 % of control. Besides, the survivor count (dose: 400.0 mg/kg/injection, schedule: Q01DX005 (ip), vehicle: saline) is 5 of 6.

Turning to `Cc1cc(C)nc(NS(=O)(=O)c2ccc(N=NC3=C(O)C(c4ccccc4)N(c4ccccc4)C3=O)cc2)n1` (stereo not given), the survivor count under setting [3] is 2 of 6.

As for `CC(=O)OC(C)/C=C\C#N` (stereo not given), the T/C under setting [1] is 97, 101, 105, 128 % of control. Moreover, the survivor count is, setting by setting: under setting [2], 0 of 6; under setting [3], 0 of 6.

In the case of `Cc1ccc2nc(N/N=C(\c3ccccc3)c3ccccn3)cc(C)c2c1`, the survivor count under setting [4] is 6 of 6.

In the case of `Clc1ccc(N=C(c2ccncc2)c2cc(Cl)ccc2Cl)cc1`, the survivor count (dose: 200.0 mg/kg/injection, schedule: Q01DX009 (ip), vehicle: saline with Tween-80) was 2 of 6.

Regarding `Cc1c2ccncc2c(C)c2c1[nH]c1ccc(F)cc12`, the T/C reads like this: (dose: 65.0 mg/kg/injection, schedule: Q04DX002 (ip), vehicle: Klucel (hydroxypropylcellulose) (HPC)) 129 % of control [5 of 6 alive]; (dose: 130.0 mg/kg/injection, schedule: Q04DX002 (ip), vehicle: Klucel (hydroxypropylcellulose) (HPC)) 138 % of control.

`COc1cc2c(c(OC)c1O)-c1ccc(OC)c(=O)cc1[C@@H](NC(=O)C(F)(F)F)CC2`: the T/C (dose: 1.25 mg/kg/injection, schedule: Q01DX005 (ip), vehicle: Klucel (hydroxypropylcellulose) (HPC)) was 131 % of control; the T/C (dose: 1.25 mg/kg/injection, schedule: Q01DX009 (ip), vehicle: Klucel (hydroxypropylcellulose) (HPC)) is 132 % of control; the T/C (dose: 2.5 mg/kg/injection, schedule: Q01DX005 (ip), vehicle: Klucel (hydroxypropylcellulose) (HPC)) was 146 % of control; the T/C (dose: 2.5 mg/kg/injection, schedule: Q01DX009 (ip), vehicle: Klucel (hydroxypropylcellulose) (HPC)) is 149 % of control. Moreover, the survivor count is, setting by setting: (dose: 10.0 mg/kg/injection, schedule: Q01DX009 (ip), vehicle: Klucel (hydroxypropylcellulose) (HPC)) 3 of 6; (dose: 20.0 mg/kg/injection, schedule: Q01DX005 (ip), vehicle: Klucel (hydroxypropylcellulose) (HPC)) 5 of 6; (dose: 20.0 mg/kg/injection, schedule: Q01DX009 (ip), vehicle: Klucel (hydroxypropylcellulose) (HPC)) 3 of 6 and 5 of 6; (dose: 40.0 mg/kg/injection, schedule: Q01DX009 (ip), vehicle: Klucel (hydroxypropylcellulose) (HPC)) 6 of 6.

With `CCN(CC)CC(C)Nc1ccc(C)c2sc3ccccc3c(=O)c12` (stereo not given), the T/C (dose: 150.0 mg/kg/injection, schedule: Q01DX009 (ip), vehicle: saline) is 145 % of control [5 of 6 alive].

For the compound `CC(C)c1oc(=O)cc2c1C(O)C1OC(=O)C3(C)C(O)C4OC4C2(C)C13` (stereo not given) (tested in a mixture with another compound), under “dose: 30.0 mg/kg/injection, schedule: Q01DX009 (ip), vehicle: saline with Tween-80”, the T/C was 128 % of control.

Consider `CCOc1ccc(-n2cnc3c(=O)[nH]c(N)nc32)cc1`, for which, where the note is “dose: 120.0 mg/kg/injection, schedule: Q01DX005 (ip), vehicle: saline with Tween-80”, the survivor count was 6 of 6.

On to `O=C1C=CC(=O)N1C(=O)NCNC(=O)N1C(=O)C=CC1=O`, for which, for the setting “dose: 100.0 mg/kg/injection, schedule: Q01DX005 (ip), vehicle: saline with Tween-80”, the T/C was 130 % of control. Besides, the survivor count under setting [4] was 0 of 6, 2 of 5, 3 of 5.

As for `COCN(CCc1ccccc1)CCN(C)C`, the survivor count (dose: 200.0 mg/kg/injection, schedule: Q01DX009 (ip), vehicle: saline) was 2 of 6.

As to `Cc1nc2c([N+](=O)[O-])c(N3CCN(C)CC3)c([N+](=O)[O-])cc2[nH]1`, the survivor count by setting is: (dose: 100.0 mg/kg/injection, schedule: Q04DX003 (ip), vehicle: saline with Tween-80) 4 of 6; (dose: 200.0 mg/kg/injection, schedule: Q04DX003 (ip), vehicle: saline with Tween-80) 0 of 6 and 2 of 6; (dose: 400.0 mg/kg/injection, schedule: Q04DX003 (ip), vehicle: saline with Tween-80) 0 of 6.

On to `COc1cccc(C=Nc2ccccc2O)c1O.[O]=[V]`, for which the survivor count runs as follows: under setting [5], 5 of 6; under setting [6], 0 of 6.

With `O=C(N=[N+]([O-])c1ccccc1)c1ccccc1`, the survivor count is 0 of 6 (dose: 50.0 mg/kg/injection, schedule: Q04DX003 (ip), vehicle: Klucel (hydroxypropylcellulose) (HPC)); 0 of 6 (dose: 100.0 mg/kg/injection, schedule: Q04DX003 (ip), vehicle: Klucel (hydroxypropylcellulose) (HPC)); 0 of 6 (dose: 200.0 mg/kg/injection, schedule: Q04DX003 (ip), vehicle: Klucel (hydroxypropylcellulose) (HPC)).

For the compound `COC(=O)C1CC23C4=C(CCC41)CCC1CN4CC(C)C(CC(OC(C)=O)C12COC(C)=O)C43O` (stereo not given), the survivor count was 6 of 6 (dose: 12.5 mg/kg/injection, schedule: Q01DX009 (ip), vehicle: Klucel (hydroxypropylcellulose) (HPC)); 6 of 6 (dose: 25.0 mg/kg/injection, schedule: Q01DX009 (ip), vehicle: Klucel (hydroxypropylcellulose) (HPC)); 6 of 6 (dose: 50.0 mg/kg/injection, schedule: Q01DX009 (ip), vehicle: Klucel (hydroxypropylcellulose) (HPC)); 6 of 6 under setting [5].

With `CN(C)C(=O)c1cc(N2CC2)c([N+](=O)[O-])cc1[N+](=O)[O-]`, the T/C (dose: 3.12 mg/kg/injection, schedule: Q01DX009 (ip), vehicle: saline with Tween-80) is 125 % of control. The survivor count by setting is: (dose: 12.5 mg/kg/injection, schedule: Q01DX009 (ip), vehicle: saline with Tween-80) 3 of 6; (dose: 25.0 mg/kg/injection, schedule: Q01DX009 (ip), vehicle: saline with Tween-80) 2 of 6; (dose: 50.0 mg/kg/injection, schedule: Q01DX009 (ip), vehicle: saline with Tween-80) 0 of 6; (dose: 100.0 mg/kg/injection, schedule: Q01DX009 (ip), vehicle: saline with Tween-80) 0 of 6.

For the compound `CN(CCOc1c(I)cc(I)cc1I)CC(O)C(O)C(O)C(O)CO` (stereo not given), the survivor count is reported as 5 of 6 under setting [5] and 0 of 6 under setting [6].
